Assay results: patent US20220193270A1, “METHOD FOR ENHANCING TUMOR GROWTH” (MINERVA BIOTECHNOLOGIES CORPORATION, priority 2013, published 2022)
Some of these results come from one statement about several compounds together.

B1: NME7-AB: recombinant human NME7 variant (A and B domains, SEQ ID NO:39) secreted as a monomer; 'NME7' in the experiments means this protein (protein)
chain: MEKTLALIKPDAISKAGEIIEIINKAGFTITKLKMMMLSRKEALDFHVDHQSRPFFNELIQFITTGPIIAMEILRDDAICEWKRLLGPANSGVARTDASESIRALFGTDGIRNAAHGPDSFASAAREMELFFPSSGGCGPANTAKFTNCTCCIVKPHAVSEGLLGKILMAIRDAGFEISAMQMFNMDRVNVEEFYEVYKGVVTEYHDMVTEMYSGPCVAMEIQQNNATKTFREFCGPADPEIARHLRPGTLRAIFGKTKIQNAVHCTDLPEDGLLEVQYFFKILDN
modifications: Human NME7-AB
notes: 'NME7' in the experiments means this protein

System: DU145 MUC1-positive prostate cancer cells
Assay: RT-PCR of cancer stem cell markers in DU145 cells cultured with agent
Type: cell-based, human
Details: culture for 10 days; FIG. 11a
Description: Example 3: Agents that are able to maintain stem cells in the naïve state transform cancer cells into cancer stem cells wherein only a small number of cells are required for engraftment. Cancer cells were cultured according to standard practice. In the controls, the cancer cells were cultured in their normal media: RPMI for T47D breast cancer cells, DU145 and PC3 prostate cancer cells. However, the test agents, recombinant proteins human NME1 dimers, bacterial HSP593 NME1 dimers, human NME7-AB and 2i, were added to a serum-free minimal media to eliminate potential interference from the many growth factors and cytokines in serum.
To this serum-free minimal media, rhNME1 (aka NM23) was added to a final concentration of 8 nM, or bacterial HSP593 recombinant NME1 was added to a final concentration of 8 nM, or rhNME7-AB was added to a final concentration of 4 nM, or 2i inhibitors, PD0325901 and CHIR99021, which inhibit the MAP kinase pathway and GSK3, respectively, were added to a final concentration of 3 μM and 1 μM.
Example 3b: Prostate cancer cells were also cultured as described above with either human NME1 dimers, bacterial NME1 dimers, NME7-AB, or 2i inhibitors. […] Thus, the RT-PCR measurements of the cancer stem cell markers are lower than that of the T47D cells, which could be explained by it being the measure of transformed cells and non-transformed cells. […]

Row | Molecule | increase in OCT4, MUC1 and CDH1/E-cadherin
1 | NME1 dimers: recombinant human NM23, also called NME1, dimers that bear the 5120G mutation that stabilizes dimers | 2-8 fold
2 | B1 | 2-8 fold
